Paper PMC5065183
These are yes or no findings as the source states them, for the method shown. In cells and extracts the contact can be indirect. A result given as binding can be weak or reduced; the word gives no strength. Sequences can lack the tags named with a protein.

Tests used:
[1] = biological target: T1, CdTlo1-6His-3Flag (C. dubliniensis Tlo1, Mediator Tail subunit Med2 ortholog) (C. dubliniensis) (UniProt B9WKI2); experiment: co-IP; affinity purification of C-terminal 6His3FLAG tagged Tlo variants from C. dubliniensis (as ref. 26, TALON step omitted; cell lysate, heparin, Flag); anti-Med1 immunoblot of the purified sample
T1 sequence: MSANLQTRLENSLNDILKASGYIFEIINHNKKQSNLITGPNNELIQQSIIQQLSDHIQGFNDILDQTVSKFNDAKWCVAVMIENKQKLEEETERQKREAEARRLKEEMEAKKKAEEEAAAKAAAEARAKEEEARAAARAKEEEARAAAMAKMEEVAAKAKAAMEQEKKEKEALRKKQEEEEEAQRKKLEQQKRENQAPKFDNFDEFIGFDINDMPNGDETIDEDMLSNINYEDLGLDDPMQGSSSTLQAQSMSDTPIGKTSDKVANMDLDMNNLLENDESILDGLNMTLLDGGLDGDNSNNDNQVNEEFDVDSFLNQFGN

[2] = biological target: C. dubliniensis Med1 (Mediator Middle module subunit) (C. dubliniensis (endogenous in C. dubliniensis)); experiment: co-IP; immunodepletion with anti-Med1 antibody on Protein G Dynabeads, 2 hours at 4°C; sample: Mediator complex purified through 6His3FLAG-tagged Tlo1; anti-HA antibody as control

“C. dubliniensis Med1 (Mediator Middle module subunit)” was tested, and the binding [1] was “binds”.

B1: CdTlo1-6His-3Flag (C. dubliniensis Tlo1, Mediator Tail subunit Med2 ortholog) (protein, UniProt B9WKI2 1-320)
chain: MSANLQTRLENSLNDILKASGYIFEIINHNKKQSNLITGPNNELIQQSIIQQLSDHIQGFNDILDQTVSKFNDAKWCVAVMIENKQKLEEETERQKREAEARRLKEEMEAKKKAEEEAAAKAAAEARAKEEEARAAARAKEEEARAAAMAKMEEVAAKAKAAMEQEKKEKEALRKKQEEEEEAQRKKLEQQKRENQAPKFDNFDEFIGFDINDMPNGDETIDEDMLSNINYEDLGLDDPMQGSSSTLQAQSMSDTPIGKTSDKVANMDLDMNNLLENDESILDGLNMTLLDGGLDGDNSNNDNQVNEEFDVDSFLNQFGN
In the case of B1, the binding [2] is reported as “binds”.
